Data on one compound can be found in patent US9718825B2, “N-(4-(azaindazol-6-yl)-phenyl)-sulfonamides and their use as pharmaceuticals” (priority 2013, dated 2017).

Amino acid sequences for entries named in this document (tags omitted).
UniProt O00141, whole entry, looked up: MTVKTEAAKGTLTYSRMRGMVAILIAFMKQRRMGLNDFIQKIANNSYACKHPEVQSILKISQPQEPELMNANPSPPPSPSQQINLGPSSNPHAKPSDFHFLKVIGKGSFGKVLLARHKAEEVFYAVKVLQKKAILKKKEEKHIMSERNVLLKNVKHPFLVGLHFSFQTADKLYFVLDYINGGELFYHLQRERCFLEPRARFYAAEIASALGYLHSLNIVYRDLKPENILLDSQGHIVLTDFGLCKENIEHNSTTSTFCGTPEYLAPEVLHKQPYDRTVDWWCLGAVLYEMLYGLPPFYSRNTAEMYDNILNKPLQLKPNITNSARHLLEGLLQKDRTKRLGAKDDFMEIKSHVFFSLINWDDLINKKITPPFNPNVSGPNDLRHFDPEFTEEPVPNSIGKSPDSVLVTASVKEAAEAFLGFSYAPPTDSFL

The structures given here were assigned with low confidence; some may be wrong.

In this test the target is SGK-1 dependent phosphorylation of GSK3beta in U2OS cells (UniProt O00141). Nature of the test: SGK-1 dependent phosphorylation of GSK3beta in U2OS cells overexpressing recombinant SGK-1 and GSK3beta. The class given is cell-based, human. The settings on record: read-out: IC50 values for inhibition of SGK-1 dependent phosphorylation of GSK3beta in U2OS cells, 6 h incubation, ratio of phosphorylated GSK3beta to total GSK3beta.

In the case of `COc1nc(-c2ccc(NS(=O)(=O)c3cc(C)ccc3F)cc2)nc2[nH]ncc12`, the IC50 was 1400 nM.
